Measurements taken from article PMC7414989.
No constants are given. Whether binding was seen depends on the method and setting. Binding seen in cells or lysates may run through a third protein. Some entries that bind do so weakly or less than the wild type. Tags and fused reporters may be left off the sequences shown.

Chains of the proteins cited; added tags and fusions are not shown. Residues count along the entry.
UniProt O14763, residues 56-440: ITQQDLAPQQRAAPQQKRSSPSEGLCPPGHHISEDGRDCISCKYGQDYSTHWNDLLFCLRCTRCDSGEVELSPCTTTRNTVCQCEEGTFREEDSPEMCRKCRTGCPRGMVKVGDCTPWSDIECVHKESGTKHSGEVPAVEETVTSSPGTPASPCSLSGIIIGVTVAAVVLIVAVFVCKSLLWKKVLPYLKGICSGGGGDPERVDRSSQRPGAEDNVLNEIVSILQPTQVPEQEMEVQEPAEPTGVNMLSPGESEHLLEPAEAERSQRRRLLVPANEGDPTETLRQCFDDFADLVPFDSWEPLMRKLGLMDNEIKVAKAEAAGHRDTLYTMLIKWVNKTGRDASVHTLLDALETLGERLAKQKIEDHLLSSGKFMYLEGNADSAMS

Biological target: DR5 (human (endogenous in RA FLSs)) (UniProt O14763)
Test: co-IP; RIPA lysates of RA FLSs challenged with CoCl2 or Tm, with or without Lv-IL13Rα1; IP with anti-IL13Rα1 or anti-DR5 (1 μg) and Protein A Dynabeads, blot with anti-DR5 or anti-IL13Rα1

Binder	binding
IL13Rα1 (receptor, UniProt P78552 22-427) GGGGAAPTETQPPVTNLSVSVENLCTVIWTWNPPEGASSNCSLWYFSHFGDKQDKKIAPETRRSIEVPLNERICLQVGSQCSTNESEKPSILVEKCISPPEGDPESAVTELQCIWHNLSYMKCSWLPGRNTSPDTNYTLYYWHRSLEKIHQCENIFREGQYFGCSFDLTKVKDSSFEQHSVQIMVKDNAGKIKPSFNIVPLTSRVKPDPPHIKNLSFHNDDLYVQWENPQNFISRCLFYEVEVNNSQTETHNVFYVQEAKCENPEFERNVENTSCFMVPGVLPDTLNTVRIRVKTNKLCYEDDKLWSNWSQEMSIGKKRNSTLYITMLLIVPVIVAGAIIVLLLYLKRLKIIIFPPIPDPGKIFKEMFGDQNDDTLHWKKYDIYEKQTKEETDSVVLIENLKKASQ	binds
Myc-tagged-wild type human IL13Rα1 (receptor, UniProt P78552 22-427) GGGGAAPTETQPPVTNLSVSVENLCTVIWTWNPPEGASSNCSLWYFSHFGDKQDKKIAPETRRSIEVPLNERICLQVGSQCSTNESEKPSILVEKCISPPEGDPESAVTELQCIWHNLSYMKCSWLPGRNTSPDTNYTLYYWHRSLEKIHQCENIFREGQYFGCSFDLTKVKDSSFEQHSVQIMVKDNAGKIKPSFNIVPLTSRVKPDPPHIKNLSFHNDDLYVQWENPQNFISRCLFYEVEVNNSQTETHNVFYVQEAKCENPEFERNVENTSCFMVPGVLPDTLNTVRIRVKTNKLCYEDDKLWSNWSQEMSIGKKRNSTLYITMLLIVPVIVAGAIIVLLLYLKRLKIIIFPPIPDPGKIFKEMFGDQNDDTLHWKKYDIYEKQTKEETDSVVLIENLKKASQ	binds
